Data from US20200296959A1, “DISINFECTION AND/OR STERILIZATION OF AGRICULTURAL CROPS” (priority 2019, published 2020).

Experiment: EO concentration maintained in sealed barrel (SEC sensor)
Settings: 17.6 g EO ampoule

Question: For C1CO1 [ethylene oxide], which “average ethylene oxide concentration maintained” value (barrel filled with 150 pounds (30 reams) of paper, two cycles) is on record?
Answer: 13.9 mg/L

Question: What about the “average ethylene oxide concentration maintained” value (empty airtight 48.8 gallon barrel, three cycles) of the same compound?
Answer: 70.3 mg/L
